Laboratory results from publication doi:10.1101/2022.06.06.495033.
Results are given in words; binding and its absence hold for the method and conditions named. In cells and extracts the contact can be indirect. A yes stands for co-enrichment or nearness to the bait. Other partners may have been found.

Target: Hrd1 (Arabidopsis) (Arabidopsis)
Assay: affinity purification with mass spectrometry

B1: TIN1 found in the Hrd1 immunoprecipitate (protein, UniProt Q84JN2 26-424)
chain: LISSPDANPPYPKAISDLKESIVKGLGFQSEEVKVSGFDIRDALVGHSVSYEFDLEIDNKVLPFKLLEDVNRWEYVDLPIFQVEQPSENGLVPMRNKKTSSDDVLPVLAPFQLSGPMELWIQDANNMRLSLPYDVDAGVLKKVILADGAVVTVKGARSVSLRHPIDLPLPLNQSSNEFASGLLSLAEQLRRASTDQESPVLSLRIVGPTSLASTSQSPDNKLKLKRLAPGLVELSSMSKDKRSLSTIGANAMTTVLTPREFTTMWPITSINGSNANLLGFEKLLTSVLGPKAQEKGSFKVLKAKVAAQTFMKIGFGIEKKLKEADVEGLSFPEWRTKPETMRMHFEVLAKVDGENVIPENVMRVDPIPLEDTIAQNVITGNVTMSKLPIIESPPSPFTL
For B1, the binding was “binds”.
